B1: Tos4 (two-hybrid prey, entire open reading frame) (protein, UniProt Q06266 1-489)
chain: MSSQFPSSPYRTVDPYSPPNYKQQPNCPSSNYEKAGKTASESIGNFGKGDYPTPFPSSSIGRVSSPVRSNKVDAIPSSPAFPGQLAETSPKFSSKLSSPSRHTRVINAELDPSKISTITVGRNSSQCDVALCKNKFISRVHASITYLPQTNEVKIHCFSMNGLIVTYRKQFDCYQLKDTMNNNNRAYRLVPRFSNEKCVKEIQDEGGFINFTLEEGDTVYMTYYKGIMLDFRQVLLRISLKEKNSSSEPLRFEKKAEFESESETKHMGSIRKHPLIFTDTSMDRPKKILKDSNKISIGSDSGVAERMLNHFLNSKSSPLSSVSSVDHEEQTLRQDSLSSDKNPMTMKKPKLNKRVLPSKPKKSVKENLDELSRRNIDVMHLQHILTNHLAFANVQQTPLFQLQQVNSQISELSRDELRSILSDAKCVGVIYRHGKDAAGKPLDEEYFYDLENDDDYERRNLVSSLKGGRTGLRSCRRTHKQYFWKKPAK
B2: Pdr3 411-976 (two-hybrid library clone) (domain or fragment, UniProt P33200 411-976)
chain: LCYAYYNVTLYHMLDINTLDYLEILVSLLEIQNEIDERFGFEKMLEVAVTCSTKMGLSRWEYYVGIDENTAERRRKIWWKIYSLEKRFLTDLGDLSLINEHQMNCLLPKDFRDMGFINHKEFLTKIGTSSLSPSSPKLKNLSLSRLIEYGELAIAQIVGDFFSETLYNEKFTSLEVSVKPTIIRQKLLEKVFEDIESFRLKLAKIKLHTSRVFQVAHCKYPEYPKNDLIEAAKFVSYHKNTWFSILGAVNNLIARLSEDPEVITEQSMKYANEMFQEWREINQFLIQVDTDFIVWACLDFYELIFFVMASKFYVEDPHITLEDVINTLKVFKRITNIISFFNNNLDEKDYDCQTFREFSRSSSLVAISIRIIFLKYCYAEQIDRAEFIERLKEVEPGLSDLLREFFDTRSFIYRYMLKSVEKSGFHLIIRKMLESDYKFLYRDKLATGNIPDQGNSSQISQLYDSTAPSYNNASASAANSPLKLSSLLNSGEESYTQDASENVPCNLRHQDRSLQQTKRQHSAPSQISANENNIYNLGTLEEFVSSGDLTDLYHTLWNDNTSYPFL
B3: Acm1 (protein, UniProt Q08981 1-209)
chain: MISPSKKRTILSSKNINQKPRAVVKGNELRSPSKRRSQIDTDYALRRSPIKTIQISKAAQFMLYEETAEERNIAVHRHNEIYNNNNSVSNENNPSQVKENLSPAKICPYERAFLREGGRIALKDLSVDEFKGYIQDPLTDETIPLTLPLGDKKISLPSFITPPRNSKISIFFTSKHQGQNPETKISRSTDDVSEKKVVRKLSFHVYEDE
B4: Fir1 (two-hybrid prey) (protein, UniProt P40020 1-876)
chain: MSLPVTPVKSKVCSTLSIQHEMDHDQCRDVLCPRENLLAINRTNNIESVAIPRQRSSKNKKPHEHTQSQVRFSIPDPNEISQDSPLKIVFPKSGNETERRMSTSSLLMNSHGHLVDMHSKILVDVPKEVWKFHHNRRKKCESRHRKTRSDVRSNTSSSGKEPNHSRSKSLQSIIVDTMNTYRATEVETSINENTSNISQVSPLNLSFDRPPPLTPEKNLYLTPESPLNRYHLPVPLEISLPPYLSPQNKDKKRSSLVYDGDGYSQFQEGNTSSSTESSLEQPSSSYSDEDDSIPYAHHDVSFELNNADADKLLGIDENANVNLKIQRRNLKNPQHIKSKTDRECEEKNTEKNVSLKILSTPNKLIDIPDLEHMKSPPSTGLNGTLKFFQQFEPSEEPTSPTRQVNPESLDKLDMSFKFPSSTTNNNVDKVHENRNSGDTNNEDFLKVDTSPVNQSFESRRQMLIDLQKSPTNNNPRIHKHRRSRSVHNIDDISLNFEATSTPPAPTSAPSIPVEHSNPCTSIEIPKRSPLRFTSSPKTSDIPPEAQSPKNGSFLQEISVPSIQIIPDESISHTREPSPSLIECPEDENEAFSTEVADHSIAIISETKSVPSIEPFKPLSSFNSFGQEIQNKEPTPLNQTPTDLIGKQRNCVNPHSIPFSVLSSNSQSSQSGSSKSSYNSEFSSNTAITDTTSQPSVTINRSTLEHNFIEEKRSIKNLGHGPPSQKNNYSFPRNKNTPSNRHDLDFNTIYEKRDGKMVEVILLDEDEDVGLKNNDISRTRVCHAQKAKNEQQKKRLSHCNEILGMCDKTADDAKRIIYQLVNEKHKFSEKGQQTKPKKSRVLPPLPFPLYDEKGNSLIPNKYQSSIHNDIPSHRKLK
B5: Ybr138C (two-hybrid prey) (protein, UniProt P38277 1-524)
chain: MEKDQIQPRVLESVDTNSLSLLSSNTSSNMNSNTNNKLSIIASDISTGSVLSRPLTPPVVQDIENNSMLQWQFEKKEFIFDSNSTPSKQAKPLQRNSPYQGNSQSENQNQQLLNVRKRRSQLIGAKPKIPSKLYQSVSKLDLIDDKSFTSLPIAPPCNIETNEDDSGNNEYNNNKKRPRLNPVNELRVHNNKRNRYVSYGPSLDTKNYELTENTSQDIPPLVLVEDYIPYTQSKSTKKMVSISDLKSKLSKRRDNHIPLRVKNSYSEINKETNRNSFEPNSLTLIPHILRNTEENRDESNNPLDFIKEEIEISDISIPNSIENMVVNLVNIPSSNKSYDDLYLSELNVHSQLRKCVICEKALYEISSRLLNSGYYKEIVCEQCTVRYEEAAKIFENCEFESSMDESNLSSGTFSDLENSAEPFHLSTDVPKKINRHIEDNKIDLKKEISKKKDSFSKELIERLQLQLLENDKSIKHHFNKDAMGSKSMNWFLEARRKLKWKWRINGLLPHFLRNQNSDRLNFQP

Protein sequences, listed by entry. Tags and fused reporters are not part of them. Lines headed by an entry give the natural chain unless they say otherwise; changes in a name come on top.
UniProt P53197: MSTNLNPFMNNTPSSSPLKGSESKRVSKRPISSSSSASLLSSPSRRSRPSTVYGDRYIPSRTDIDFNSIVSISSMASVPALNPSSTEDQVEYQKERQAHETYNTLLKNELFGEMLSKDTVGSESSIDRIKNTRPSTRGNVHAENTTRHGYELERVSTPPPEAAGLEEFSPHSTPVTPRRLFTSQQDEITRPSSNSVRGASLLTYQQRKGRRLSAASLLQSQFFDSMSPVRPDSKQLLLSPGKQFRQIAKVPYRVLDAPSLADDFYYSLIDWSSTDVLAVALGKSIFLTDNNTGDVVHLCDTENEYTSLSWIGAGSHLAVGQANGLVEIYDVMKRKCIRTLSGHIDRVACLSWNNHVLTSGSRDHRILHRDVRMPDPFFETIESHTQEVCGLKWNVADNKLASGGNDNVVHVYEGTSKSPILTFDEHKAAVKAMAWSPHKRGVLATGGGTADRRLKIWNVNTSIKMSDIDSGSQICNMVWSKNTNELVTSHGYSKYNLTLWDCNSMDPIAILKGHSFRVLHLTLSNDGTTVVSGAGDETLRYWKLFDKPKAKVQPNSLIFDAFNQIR

Results are given in words; binding and its absence hold for the method and conditions named. Binding calls can cover weak binding; strength is not graded here.

Here are results for five molecules from publication PMC3458821.

This test has as its target Cdh1-ΔN200-D12 (S. cerevisiae) (UniProt P53197). The test is described as follows: two-hybrid; pJ69-4a strains with bait plasmids mated with pJ69-4α strains with activation domain plasmids; diploids struck onto plates lacking leucine, tryptophan, histidine and adenine; growth indicates interaction.
In the case of B1, the binding result is recorded as “no binding”.

On to B2, for which the binding result was “no binding”.

Turning to B3, the binding entry is “binds”.

Turning to B4, the binding entry is listed as “no binding”.

Consider B5, for which the binding result is given as “no binding”.
